Results are given in words; binding and its absence hold for the method and conditions named. In cells and extracts the contact can be indirect. Some results given as binding are weak or reduced against the parent protein; the word gives no strength. Tags and fused reporters may be left off the sequences shown.
Tests used:
Experiment in all cases: co-IP; 12xMyc-Met30 variants immunoprecipitated on MYC-trap beads from 1 mg native yeast whole cell lysate (Triton X-100 buffer: 50 mM HEPES pH 7.5, 0.2% Triton X-100, 200 mM NaCl), overnight at 4 °C; co-precipitated Skp1 by western blot; cells untreated or treated with 100 µM CdCl2 (time courses); also H2O2 or zinc pre-treatment
[1] = target: T1, 12xMyc-Met30 ∆113-180 (S. cerevisiae) (UniProt P39014)
T1 sequence: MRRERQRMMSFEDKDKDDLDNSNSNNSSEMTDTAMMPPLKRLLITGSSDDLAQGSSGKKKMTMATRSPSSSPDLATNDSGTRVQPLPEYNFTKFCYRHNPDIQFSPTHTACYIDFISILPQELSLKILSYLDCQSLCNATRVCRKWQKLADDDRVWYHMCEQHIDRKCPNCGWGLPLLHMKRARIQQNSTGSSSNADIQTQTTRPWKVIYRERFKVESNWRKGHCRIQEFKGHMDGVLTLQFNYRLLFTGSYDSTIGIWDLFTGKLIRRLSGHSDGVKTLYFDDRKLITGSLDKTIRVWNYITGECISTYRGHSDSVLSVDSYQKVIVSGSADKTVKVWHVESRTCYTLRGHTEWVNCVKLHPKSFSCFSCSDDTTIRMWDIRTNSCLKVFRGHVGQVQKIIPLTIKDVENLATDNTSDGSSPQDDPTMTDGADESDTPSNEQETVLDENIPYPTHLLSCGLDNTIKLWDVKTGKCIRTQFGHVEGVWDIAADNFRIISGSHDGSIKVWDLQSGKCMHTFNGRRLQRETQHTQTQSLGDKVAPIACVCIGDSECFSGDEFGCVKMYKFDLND

Chains of the proteins cited; added tags and fusions are not shown.
UniProt P52286: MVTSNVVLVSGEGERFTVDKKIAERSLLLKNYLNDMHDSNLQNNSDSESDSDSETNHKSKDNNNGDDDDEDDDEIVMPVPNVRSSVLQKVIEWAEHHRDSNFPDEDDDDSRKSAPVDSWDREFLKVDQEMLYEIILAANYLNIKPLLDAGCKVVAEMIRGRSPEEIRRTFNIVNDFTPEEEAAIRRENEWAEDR

[2] = target: T2, 12xMyc-Met30 ∆236–239 (S. cerevisiae) (UniProt P39014)
T2 sequence: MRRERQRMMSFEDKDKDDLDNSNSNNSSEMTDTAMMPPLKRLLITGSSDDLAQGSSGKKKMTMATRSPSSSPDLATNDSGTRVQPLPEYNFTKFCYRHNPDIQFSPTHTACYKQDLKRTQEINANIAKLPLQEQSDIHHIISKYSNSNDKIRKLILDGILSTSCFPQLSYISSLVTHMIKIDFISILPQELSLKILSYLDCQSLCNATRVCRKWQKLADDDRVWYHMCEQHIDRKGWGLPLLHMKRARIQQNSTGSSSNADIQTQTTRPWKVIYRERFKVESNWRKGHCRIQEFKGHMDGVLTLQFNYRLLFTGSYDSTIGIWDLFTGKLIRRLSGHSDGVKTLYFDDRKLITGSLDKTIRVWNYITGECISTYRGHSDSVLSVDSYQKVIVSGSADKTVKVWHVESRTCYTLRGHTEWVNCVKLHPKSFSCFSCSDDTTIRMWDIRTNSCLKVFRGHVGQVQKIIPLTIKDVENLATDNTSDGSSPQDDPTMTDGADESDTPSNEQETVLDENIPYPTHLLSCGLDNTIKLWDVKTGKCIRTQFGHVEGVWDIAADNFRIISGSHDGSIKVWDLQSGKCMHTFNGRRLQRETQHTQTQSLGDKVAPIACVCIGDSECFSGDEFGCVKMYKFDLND

[3] = target: T3, 12xMyc-Met30 ∆95–99 (S. cerevisiae) (UniProt P39014)
T3 sequence: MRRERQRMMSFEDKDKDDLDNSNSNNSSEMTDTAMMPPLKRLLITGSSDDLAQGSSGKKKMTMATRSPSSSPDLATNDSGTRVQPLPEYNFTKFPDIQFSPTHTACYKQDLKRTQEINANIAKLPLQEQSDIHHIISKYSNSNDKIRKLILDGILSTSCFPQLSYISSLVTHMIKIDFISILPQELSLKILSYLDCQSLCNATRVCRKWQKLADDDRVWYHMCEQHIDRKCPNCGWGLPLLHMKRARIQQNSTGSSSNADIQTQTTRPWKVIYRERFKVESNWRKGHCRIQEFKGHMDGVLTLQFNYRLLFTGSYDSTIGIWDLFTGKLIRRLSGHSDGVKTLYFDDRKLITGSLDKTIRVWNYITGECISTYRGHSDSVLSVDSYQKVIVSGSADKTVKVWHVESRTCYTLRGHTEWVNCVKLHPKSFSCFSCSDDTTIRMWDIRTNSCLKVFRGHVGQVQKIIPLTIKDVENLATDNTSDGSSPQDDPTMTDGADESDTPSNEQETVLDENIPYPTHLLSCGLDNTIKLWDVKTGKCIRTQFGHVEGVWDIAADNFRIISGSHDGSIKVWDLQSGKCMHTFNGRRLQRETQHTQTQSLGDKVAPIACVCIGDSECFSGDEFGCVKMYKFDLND

[4] = target: T4, 12xMyc-Met30^1-253 (S. cerevisiae) (UniProt P39014)
T4 sequence: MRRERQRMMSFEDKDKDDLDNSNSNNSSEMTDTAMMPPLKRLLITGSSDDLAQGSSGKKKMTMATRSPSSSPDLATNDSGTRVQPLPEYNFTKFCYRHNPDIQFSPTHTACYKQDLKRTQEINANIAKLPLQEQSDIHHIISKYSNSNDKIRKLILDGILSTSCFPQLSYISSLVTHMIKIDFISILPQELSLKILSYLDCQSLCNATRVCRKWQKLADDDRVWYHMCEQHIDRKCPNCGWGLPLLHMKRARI

Measured: binding

Skp1 (from UniProt P52286 1-194)
binds: all assays above

Reference: paper PMC11079001
